From PubChem BioAssay (NCATS)
Values joined by “and” are separate entries in the source; they are usually repeats but may differ in a detail not shown here. Equal entries are not always repeated. The shares of active, inactive and inconclusive entries below differ from those in the screen. For some of these results: Where the call is inconclusive, the potency comes from a doubtful curve fit. For some of these results: “Side channel” marks fits to a control or component signal instead of the main read-out. Active and inactive are the calls of the source. Unless noted, the call rests on the fitted dose curve; in most records, active means well fitted curve in the direction sought with a large enough effect; inconclusive means small, poorly fitted or top-dose-only effect, or another doubt; inactive means no such curve, though single readings can be large; an effect the other way counts as inactive or inconclusive.

Chains of the proteins cited; added tags and fusions are not shown. Lines headed by an entry give the natural chain unless they say otherwise; changes in a name come on top.
UniProt P19793: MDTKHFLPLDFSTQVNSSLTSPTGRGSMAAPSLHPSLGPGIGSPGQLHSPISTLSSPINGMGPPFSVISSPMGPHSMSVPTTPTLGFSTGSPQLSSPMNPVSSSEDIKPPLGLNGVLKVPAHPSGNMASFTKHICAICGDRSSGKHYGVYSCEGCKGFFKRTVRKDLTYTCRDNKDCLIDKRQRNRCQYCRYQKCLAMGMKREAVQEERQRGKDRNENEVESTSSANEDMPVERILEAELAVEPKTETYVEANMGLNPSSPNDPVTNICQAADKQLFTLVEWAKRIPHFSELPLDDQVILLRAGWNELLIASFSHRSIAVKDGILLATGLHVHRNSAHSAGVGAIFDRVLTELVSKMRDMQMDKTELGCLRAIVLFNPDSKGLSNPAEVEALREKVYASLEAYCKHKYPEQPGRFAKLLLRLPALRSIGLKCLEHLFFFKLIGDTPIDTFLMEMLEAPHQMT
UniProt P10828: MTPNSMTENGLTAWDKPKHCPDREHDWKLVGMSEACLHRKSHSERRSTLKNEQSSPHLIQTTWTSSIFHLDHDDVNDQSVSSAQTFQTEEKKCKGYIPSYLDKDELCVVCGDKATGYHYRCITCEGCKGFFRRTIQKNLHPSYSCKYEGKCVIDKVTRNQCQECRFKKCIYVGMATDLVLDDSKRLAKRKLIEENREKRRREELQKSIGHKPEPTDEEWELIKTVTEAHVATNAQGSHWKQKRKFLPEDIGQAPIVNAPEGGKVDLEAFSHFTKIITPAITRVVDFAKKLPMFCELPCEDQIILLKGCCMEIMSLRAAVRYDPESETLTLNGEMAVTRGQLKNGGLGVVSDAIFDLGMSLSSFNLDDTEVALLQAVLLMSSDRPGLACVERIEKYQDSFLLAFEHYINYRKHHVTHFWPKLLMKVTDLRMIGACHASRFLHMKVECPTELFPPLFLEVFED

Key:
[1] = MultiTox-Fluor Cytotoxicity Assay - LYMP1-001 - Live Cells (AID 947); further: potency means the concentration at half of the fitted maximal effect
[2] = Cell Viability - LYMP2-021 (AID 974);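 further: compound exposure lasts 24 hours at 37 °C; on the % scale 0 is the no-effect control and ±100 the full control effect; nearly all actives have a fitted effect of over 55% in size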
Summary of the method: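 Loss of cellular ATP, measured with a luciferase-based CellTiter-Glo readout, serves as the toxicity signal in human lymphoblastoid cells treated for 24 hours at 37 C. Potency is reported as AC50 from a standard Hill model.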

[3] = target: Glucocorticoid receptor (Homo sapiens) (UniProt P04150); experiment: qHTS assay for small molecule agonists of glucocorticoid receptor signaling (AID 588532; active means well fitted curve in the direction sought with a large enough effect in the signal ratio, with a control signal flat; inconclusive means small, poorly fitted or top-dose-only effect, or a change in a side signal; inactive means no such curve, though single readings can be large or run the other way; the % refers to the signal ratio; further: potency means the concentration at half of the fitted maximal effect;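 on activation: 100% = dexamethasone at 0.1 µM and 0% = DMSO only wells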); conditions: HeLa MMTV-bla, beta-lactamase ratio, agonist, 18 h; activation: stronger effect = higher value, percent of dexamethasone control, DMSO zero
Summary of the method: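 HeLa GRE-bla reporter cells; 18 h compound exposure at 37 C; 2 h CCF4 loading at room temperature; fluorescence at 460 and 530 nm; EC50 by Hill equation.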

[4] = target: Peroxisome proliferator-activated receptor gamma (Homo sapiens) (UniProt P37231); experiment: qHTS assay for small molecule agonists of peroxisome proliferator-activated receptor gamma signaling (AID 588536; active means well fitted curve in the direction sought with a large enough effect in the signal ratio, with a control signal flat, not every such curve was filed as active; inconclusive means small, poorly fitted or top-dose-only effect, or effect the other way, or a change in a side signal; inactive means no such curve, though single readings can be large or run the other way; the % refers to the signal ratio;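 further: 0% = DMSO basal wells and 100% = rosiglitazone at 2 µM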); conditions: HEK293 PPARg-UAS-bla, beta-lactamase ratio, 16 h; activation: at 76.7 µM (top of the series), percent of rosiglitazone response, DMSO as zero
Summary of the method: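 Using GeneBLAzer HEK293 cells, response was quantified by CCF4 fluorescence and normalized between basal DMSO (0%) and rosiglitazone 2 uM (100%); curves yielded half-maximal stimulation concentration and efficacy.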

[5] = qHTS assay for small molecule agonists of the antioxidant response element (ARE) signaling pathway (AID 651741; active means well fitted activation curve with a large enough effect in the signal ratio; inconclusive means small, poorly fitted or top-dose-only effect, or effect the other way, or a change in a side signal; the % refers to the signal ratio; further: potency means the concentration at half of the fitted maximal effect; on activation: % of control where 0% means no effect); conditions: HepG2 ARE-bla reporter, beta-lactamase FRET ratio, 16 h; activation: at 96 µM (top of the series) unless noted
Summary of the method: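 Stably integrated ARE-beta-lactamase reporter HepG2 cells; 16 h compound incubation, 37 C; LiveBLAzer FRET substrate 2 h at room temperature; fluorescence intensity.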

[6] = qHTS assay for small molecule agonists of the antioxidant response element (ARE) signaling pathway measured by Nrf2-dependant transcriptional activity (AID 720636; active means well fitted curve in the direction sought with a large enough effect in the repeat runs; inconclusive means weak or mixed curves; inactive means no such curve, though single readings can be large; an effect the other way counts as inactive or inconclusive;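 further: HepG2 cells with an ARE-driven luciferase reporter; % of control where 0% means no effect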)
Summary of the method: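 First, ARE-luc HepG2 cells attached for 6 hr at 37 C in 1% dialyzed FBS medium. Next, compound or DMSO was added and incubated 16 hr. Finally, ONE-Glo reagent was added and luminescence measured after 30 min.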

[7] = Cell Viability - LYMP2-004 (AID 966); conditions: LYMP2-004 lymphoblastoid cell viability, qHTS; activity change, negative = cytotoxicity: at 92.2 µM (top of the series); further: nearly all actives have a fitted effect of over 65% in size; further: potency means the concentration at half of the fitted maximal effect;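 on activity change, negative = cytotoxicity: plate controls were DMSO only for no effect and tetraoctylammonium bromide control for full effect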
Summary of the method: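 qHTS cytotoxicity: human lymphoblastoid line, 24 hr compound treatment, 37 C, complete medium. Viability read as cellular ATP via luciferase luminescence; tetraoctylammonium bromide served as positive control.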

[8] = Cell Viability - LYMP2-015 (AID 971); further: potency means the concentration at half of the fitted maximal effect; nearly all actives have a fitted effect of over 55% in size
Summary of the method: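 Cells are seeded at 2500 per well and incubated 5 hr at 37 C. Compounds are added across a concentration series for 24 hr at 37 C. CellTiter-Glo is added, and luminescence is read after 30 min at room temperature.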

[9] = Cell Viability - LYMP2-014 (AID 983);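 further: plate controls were DMSO only for no effect and 92 µM tetraoctylammonium bromide for full effect; nearly all actives have a fitted effect of over 50% in size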
Summary of the method: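 Cells are plated at 2500/well and left 5 hr at 37 C. Compounds are added across a concentration range and incubated 24 hr at 37 C in complete medium. CellTiter-Glo is added, and luminescence is read after 30 min at room temperature.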

[10] = qHTS assay for small molecule antagonists of the retinoid-related orphan receptor gamma (ROR-gamma) signaling pathway - cell viability counter screen (AID 720652; active means well fitted curve in the direction sought with a large enough effect in the repeat runs; inconclusive means weak or mixed curves; inactive means no such curve, though single readings can be large; an effect the other way counts as inactive or inconclusive;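 further: CHO reporter cells with doxycycline-induced ROR-gamma expression; compound exposure lasted 16 hr before ATP read; on the % scale 0 is the no-effect control and ±100 the full control effect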)
Summary of the method: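 Steps: seed CHO cells bearing TET-inducible ROR and ROR response element-luciferase; rest 5 hr at 37 C; add compound, then doxycycline; incubate 16 hr; add CellTiter-Glo and read luminescence as ATP-based viability.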

[11] = MultiTox-Fluor Cytotoxicity Assay - LYMP1-001 - Dead Cells (AID 946);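 further: 0% = DMSO and 100% = tetraoctylammonium bromide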
Summary of the method: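 In this qHTS, 15 uM tetraoctylammonium bromide defined 100% and DMSO defined basal activity. Lymphoblastoid cells (LYMP1-001, 2500 per well) received compound for 16 hr at 37 C before a fluorogenic dead-cell substrate readout at 485/520 nm.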

[12] = Cell Viability - LYMP2-006 (AID 978); further: potency means the concentration at half of the fitted maximal effect; nearly all actives have a fitted effect of over 60% in size
Summary of the method: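 Potency values are Hill-fit AC50s for decreases in intracellular ATP (CellTiter-Glo luminescence). LYMP2-006 lymphoblastoid cells, 2500 per well, were exposed to compound in complete culture medium for 24 hr at 37 C.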

[13] = Cell Viability - LYMP2-022 (AID 987); further: potency means the concentration at half of the fitted maximal effect; nearly all actives have a fitted effect of over 55% in size
Summary of the method: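 Cells were seeded at 2500 per well, rested 5 hr at 37 C, and treated with titrated compounds for 24 hr at 37 C. Cellular ATP was then quantified by luciferase luminescence, and AC50 values were derived from Hill-modelled concentration-response curves.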

[14] = target: Peroxisome proliferator-activated receptor gamma (Homo sapiens) (UniProt P37231); experiment: qHTS assay for small molecule antagonists of peroxisome proliferator-activated receptor gamma signaling (AID 588537; active means well fitted inhibition curve with a large enough effect in the signal ratio, with a control signal flat, not every such curve was filed as active; inconclusive means small, poorly fitted or top-dose-only effect, or effect the other way, or a change in a side signal; the % refers to the signal ratio;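 further: reporter cells co-stimulated with 50 nM rosiglitazone agonist during compound treatment; % of control where 0% means no effect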); conditions: HEK293 PPARg-UAS-bla, beta-lactamase ratio, antagonist mode; activity, negative = inhibition: at 76.8 µM (top of the series) unless noted
Summary of the method: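 Fluorescence at 460 and 530 nm (405 nm excitation) reported beta-lactamase cleavage of CCF4 after 2 h room-temperature loading. HEK293 reporter cells in 1% charcoal/dextran-treated FBS had received compound and rosiglitazone for 16 h.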

[15] = qHTS assay to identify small molecules that stimulate interleukin-8 (IL-8) secretion (AID 651758; active means well fitted activation curve with a large enough effect in the signal ratio; inconclusive means small, poorly fitted or top-dose-only effect, or effect the other way, or a change in a side signal; the % refers to the signal ratio; further: potency means the concentration at half of the fitted maximal effect; on activation: 0% is about no effect); conditions: HTRF ratio (665/615); activation: at 92.2 µM (top of the series)
Summary of the method: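 Compounds are added to THP-1 cells (2000 per well) and left 16 hrs at 37 C. A labeled anti-IL-8 antibody pair is then added, and IL-8 secretion is measured by time-resolved FRET after 1-3 hrs at room temperature.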

[16] = target: Bile acid receptor (Homo sapiens) (UniProt Q96RI1); experiment: qHTS assay for small molecule agonists of farnesoid X receptor signaling (AID 588527; calls by dose curve; further: potency means the concentration at half of the fitted maximal effect); conditions: HEK293T FXR-UAS-bla, beta-lactamase ratio, 16 h; activation: stronger effect = higher value
Summary of the method: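 Quantitative HTS used FXR-UAS-bla HEK293T cells with 16 h compound incubation at 37 C. EC50 values came from concentration-response curves normalized to chenodeoxycholic acid.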

[17] = target: Glucocorticoid receptor (Homo sapiens) (UniProt P04150); experiment: qHTS assay for small molecule antagonists of glucocorticoid receptor signaling (AID 588533; active means well fitted inhibition curve with a large enough effect in the signal ratio, with a control signal flat, not every such curve was filed as active; inconclusive means small, poorly fitted or top-dose-only effect, or effect the other way, or a change in a side signal; the % refers to the signal ratio;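 further: cells stimulated with 2 nM dexamethasone as agonist; on the % scale 0 is the no-effect control and ±100 the full control effect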); conditions: HeLa MMTV-bla, GRE beta-lactamase ratio, antagonist mode, 18 h; activity change, negative = inhibition: at 76.8 µM (top of the series)
[18] = Cell Viability - LYMP2-019 (AID 973); further: potency means the concentration at half of the fitted maximal effect; nearly all actives have a fitted effect of over 55% in size
Summary of the method: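 Cytotoxicity is scored as a concentration-dependent drop in cellular ATP after cells (2500/well) receive compound for 24 hr at 37 C. Tetraoctylammonium bromide serves as positive control.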

[19] = Cell Viability - LYMP2-012 (AID 982); conditions: LYMP2-012 lymphoblastoid cell viability qHTS; activity change, negative = cytotoxicity: at 92.2 µM (top of the series)
[20] = Cell Viability - LYMP2-024 (AID 988); further: potency means the concentration at half of the fitted maximal effect; nearly all actives have a fitted effect of over 60% in size
Summary of the method: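 qHTS cytotoxicity, human lymphoblastoid line, complete medium; 24 h cpd treatment, 37 C; CellTiter-Glo ATP luminescence readout; tetraoctylammonium bromide positive control; AC50 via Hill fit.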

[21] = target: Retinoic acid receptor RXR-alpha (Homo sapiens) (UniProt P19793); experiment: qHTS assay for small molecule agonists of retinoid X receptor alpha signaling (AID 588544; calls by dose curve;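 further: 0% = DMSO basal wells and 100% = reference agonist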); conditions: HEK293T RXRa-UAS-bla, beta-lactamase reporter, 18 h; activation: at 76.7 µM (top of the series)
[22] = target: Thyroid hormone receptor beta (Homo sapiens) (UniProt P10828); experiment: qHTS assay for small molecule antagonists of thyroid hormone receptor beta signaling (AID 588547; active means well fitted inhibition curve with a large enough effect in the signal ratio, with a control signal flat, not every such curve was filed as active; inconclusive means small, poorly fitted or top-dose-only effect, or effect the other way, or a change in a side signal; the % refers to the signal ratio;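 further: cells stimulated with 0.4 nM T3 agonist during compound exposure; on the % scale 0 is the no-effect control and ±100 the full control effect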); conditions: TR-UAS-bla HEK293, beta-lactamase ratio, antagonist mode, 18 h
Summary of the method: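 TR-UAS-bla GripTite HEK293 cells in 2% charcoal/dextran FBS medium; compounds 0.59 nM to 92 uM with T3 at 0.4nM final, 18 h at 37 C. Beta-lactamase read by CCF4 fluorescence (460/530 nm); Hill fits gave IC50 and efficacy.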

[23] = qHTS assay for cell viability of HEK293 cells (AID 743288); conditions: ATP luminescence (CellTiter-Glo), 18 h; max response: stronger effect = lower value; further: on the % scale 0 is the no-effect control and ±100 the full control effect; nearly all actives have a fitted effect of over 50% in size
Summary of the method: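 Readout is luciferase-coupled ATP content (CellTiter-Glo luminescence, 30 min room temperature) as a measure of metabolically competent cells. Parental HEK293 cells were plated 5 h or more before compound addition, then treated 18 h at 37 C.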

[24] = Cellular Toxicity (caspase-3) Jurkat (AID 655); conditions: Jurkat caspase-3 activation, luminescence, DMSO = 0%, tamoxifen = 100%; at 92.2 µM (top of the series);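 further: cells exposed to compound for 16 h at 37 °C before reading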
Summary of the method: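 Luminescent Caspase-Glo 3/7 read-out (20 min, room temperature) after 16 h compound treatment at 37 C of 5000 Jurkat cells per well. AC50 derived by Hill-equation fitting, scaled between DMSO basal and 100 uM tamoxifen stimulation.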

[25] = MultiTox-Fluor Cytotoxicity Assay - LYMP1-002 - Dead Cells (AID 960); conditions: LYMP1-002 lymphoblastoid cells, dead-cell protease fluorescence; cytotoxicity (dead cells): at 46.1 µM (top of the series); further: potency means the concentration at half of the fitted maximal effect; nearly all actives have a fitted effect of over 60% in size
Summary of the method: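 Cells were plated, rested 5 hr, then treated with compound dilution series for 16 hr at 37 C. After adding substrate reagent and 60 min at room temperature, dead-cell protease fluorescence gave concentration-response curves fitted by the Hill equation.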

[26] = Cell Viability - LYMP2-003 (AID 965); conditions: LYMP2-003 lymphoblastoid cell viability; activity change, negative = cytotoxicity: at 92.2 µM (top of the series);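 further: cells exposed to compounds for 24 h before reading; 0% = DMSO only and full effect = 92 µM tetraoctylammonium bromide; nearly all actives have a fitted effect of over 50% in size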
Summary of the method: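 CellTiter-Glo luminescence quantified ATP loss after 24 h compound treatment of LYMP2-003 lymphoblastoid cells at 37 C. Titration series were fitted with the standard Hill equation to give AC50.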

[27] = target: Thyroid hormone receptor beta (Homo sapiens) (UniProt P10828); experiment: qHTS assay for small molecule agonists of thyroid hormone receptor beta signaling (AID 588545; calls by dose curve; further: potency means the concentration at half of the fitted maximal effect); conditions: TR-UAS-bla GripTite HEK 293, beta-lactamase ratio, agonist mode, 18 h; activation: at 76.7 µM, percent of T3 response, DMSO as zero
Summary of the method: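 Agonist activity was read as beta-lactamase CCF4 fluorescence (405 ex, 460/530 em), scaled between DMSO (0%) and 10 nM T3 (100%), then Hill-fitted for EC50 and efficacy. HEK 293 TR-UAS-bla cells in 2% charcoal/dextran FBS medium were exposed 18 h at 37 C.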

CC(=O)OC(C)=O
inactive: Potency [2] | Potency [4] | Potency [5] | Potency [6]
inconclusive: Potency [1] 31.6 µM [cytotoxic, full curve, poor fit] | Potency [3] 2.82 µM [side channel, rising, partial curve, poor fit]

ON=C1CCCCC1
inconclusive: Potency [8] 0.501 µM [cytotoxic, full curve, poor fit] | Potency [3] 0.0631 µM [side channel, falling, full curve, poor fit] | Potency [5] 66.8 µM [activator, partial curve, poor fit]
inactive: Potency [7] | Potency [9] | Potency [6] | Potency [10]

C=C(C#N)C(=O)OCC
inconclusive: Potency [7] 20 µM [cytotoxic, full curve, poor fit] | Potency [12] 15.8 µM [cytotoxic, partial curve, poor fit] | Potency [13] 50.1 µM [cytotoxic, partial curve, poor fit] | activity, negative = inhibition [14] 9.13% | Potency [15] 75 µM [activator, single point]
inactive: Potency [11] | activation [3] -0.945% | Potency [6]

CCCCCCCCCCO
inactive: Potency [17]
inconclusive: Potency [16] 0.0035 µM [side channel, falling, full curve, poor fit] | activity, negative = inhibition [14] 1.45%

CCC(=O)/C=C/C1C(C)=CCCC1(C)C (centres undefined)
inactive: activation [3] -2.65% | Potency [21] | activity change % (negative = inhibition) [22] -4.67% | Potency [15] | max response [23] 0.395%
inconclusive: Potency [18] 79.4 µM [cytotoxic, single point] | Potency [19] 79.4 µM [cytotoxic, single point] | Potency [13] 79.4 µM [cytotoxic, single point] | Potency [20] 50.1 µM [cytotoxic, partial curve, poor fit] | activity change, negative = inhibition [17] 21.4% | Potency [5] 75 µM [activator, single point]

CC(=O)c1ccc([N+](=O)[O-])cc1
inconclusive: activation [3] -1.33% | activity, negative = inhibition [14] -15.6% | Potency [5] 75 µM [activator, partial curve, poor fit] | Potency [15] 75 µM [activator, single point]
inactive: max response [23] 5.77%

COC(=O)c1ccc(C)cc1
inconclusive: Potency [25] 31.6 µM [cytotoxic, single point] | Potency [16] 0.0112 µM [side channel, falling, full curve, poor fit] | Potency [3] 0.199 µM [side channel, falling, full curve, poor fit] | Potency [27] 1 µM [side channel, falling, full curve, poor fit] | activation [15] -1.58%
inactive: caspase-3 activation [24] 0.483% | Potency [26] | activity change % (negative = inhibition) [22] -22.1% and -12.5% | Potency [5]
